Source: patent publication US5312746

Legend:
[1] = test system: ClaI restriction endonuclease (Caryophanon latum); assay: enzyme reaction in vitro; conditions: cell extract, lambda DNA, REact 1 buffer, 37 C 1 h; ClaI-size bands; both clones active; protein in a lysate after overexpression
[2] = test system: ClaI modification methylase (M.ClaI) (Caryophanon latum); assay: activity in cells; conditions: methylation protects resident plasmid and host chromosomal DNA from ClaI digestion; protein in cells; only the site is given

| Sequence | activity on this sequence [1] | activity on this sequence [2] |
| --- | --- | --- |
| ATCGAT (double strand) [ClaI recognition site (in lambda DNA)] | active | – |
| ATCGAT (double strand) [ClaI recognition site (in plasmid and E. coli host DNA)] | – | active |

The exact form of at least one protein or probe is not confirmed.
